Reference: the supplement of paper PMC8256030
This is one part of the list. This data set is noisy: repeats of one test often differ as much as different tests do.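 HEK293T cells were given each compound shortly before transfection with a reporter in which red mCherry is followed by the SARS-CoV-2 frameshift element and then GFP in the −1 frame, so GFP appears only after frameshifting.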

Test system: HEK293T
Test: percent viability (nuclei count) relative to control; higher = more viable cells
Conditions: 10 µM; 24 h

First: CN(CCOc1ccc(NS(C)(=O)=O)cc1)CCc1ccc(NS(C)(=O)=O)cc1 [dofetilide]
Second: O=C(O)c1cc(/N=N/c2ccc(S(=O)(=O)Nc3ccccn3)cc2)ccc1O [Sulfasalazine]
The percent viability of the first is lower: 207% for the first, 231% for the second.

Compared with N[C@@H](Cc1c[nH]cn1)C(=O)O [L-Histidine], Nc1c(CC(=O)O)cccc1C(=O)c1ccccc1 [amfenac] is lower in percent viability: 284% for the first, 78.9% for the second.

Going from NC(=O)c1ccc[n+]([C@@H]2O[C@H](COP(=O)([O-])OP(=O)(O)OC[C@H]3O[C@@H](n4cnc5c(N)ncnc54)[C@H](O)[C@@H]3O)[C@@H](O)[C@H]2O)c1 to Cc1cc2nc3c(=O)[nH]c(=O)nc-3n(C[C@H](O)[C@H](O)[C@H](O)CO)c2cc1C, the percent viability rises from 265% to 339%.

Compared with CCC(OC(N)=O)C1CCCCC1 (stereo not drawn) [procymate], CC(C)C[C@H](NC(=O)[C@@H](Cc1c[nH]c2ccccc12)NC(=O)[C@H](Cc1ccc(O)cc1)NC(=O)[C@H](CO)NC(=O)[C@H](Cc1c[nH]c2ccccc12)NC(=O)[C@H](Cc1c[nH]cn1)NC(=O)[C@@H]1CCC(=O)N1)C(=O)N[C@@H](CCCNC(=N)N)C(=O)N1CCC[C@H]1C(=O)NCC(N)=O [Triptorelin] is lower in percent viability: 227% for the first, 188% for the second.
